# From the supplement of paper PMC7830784
# Structures can show the parent of a compound that is named as a salt. This is one part of the list. Most values lie within the scatter of the assay; repeated measurements hardly agree.
# System: Brugia pahangi adult female
# Assay: motility inhibition on day 3 relative to DMSO vehicle; higher = more active
# Conditions: 10 µM; 3 days
row,Compound,motility inhibition on day 3 [%]
1,CN(C)CCCN1c2ccccc2CCc2ccc(Cl)cc21 [Clomipramine hydrochloride],0.394
2,Clc1ccccc1CN1CCc2sccc2C1 [ticlopidine hydrochloride],21.3
3,CCC(=O)O[C@H](CC(=O)O)C[N+](C)(C)C [levocarnitine propionate hydrochloride],4.19
4,Nc1ccc(O)c(C(=O)O)c1 [mesalamine],< 0
5,COc1cc2c(cc1O)CC[C@@H]1[C@@H]2CC[C@]2(C)[C@@H](O)CC[C@@H]12 [2-methoxyestradiol],< 0
6,COC(=O)C1=C(C)NC(C)=C(C(=O)OC)C1c1ccccc1[N+](=O)[O-] [Nifedipine],9.97
7,C#C[C@]1(O)CC[C@H]2[C@@H]3CCC4=CC(=O)CC[C@@H]4[C@H]3CC[C@@]21C [norethindrone],15.5
8,O=C1CC[C@@H](C(=O)O)N1 [pidolic acid],35.6
9,CO[C@@]1(NC(=O)C(C(=O)O)c2ccc(O)cc2)C(=O)N2C(C(=O)O)=C(CSc3nnnn3C)CO[C@@H]21 (stereo partly drawn) [moxalactam disodium],2.98
10,Nc1ccc(S(=O)(=O)Nc2ncccn2)cc1 [sulfadiazine],< 0
11,C#C[C@]1(OC(C)=O)CC[C@H]2[C@@H]3CCC4=C[C@@H](OC(C)=O)CC[C@@H]4[C@H]3CC[C@@]21C [ethynodiol diacetate],25.5
12,OC[C@@H](O)[C@@H](O)CO [erythritol],15.6
13,CC(=O)OC/C=C(C)/C=C/C=C(C)/C=C/C1=C(C)CCCC1(C)C [retinyl acetate],< 0
14,NS(=O)(=O)c1cc2c(cc1Cl)N=C(CSCc1ccccc1)NS2(=O)=O [benzthiazide],2.41
15,CCCCC(=O)OCC(=O)[C@]1(O)Cc2c(O)c3c(c(O)c2[C@@H](O[C@H]2C[C@H](NC(=O)C(F)(F)F)[C@H](O)[C@H](C)O2)C1)C(=O)c1c(OC)cccc1C3=O [Valrubicin],10.3
16,O=C1C(CC[S+]([O-])c2ccccc2)C(=O)N(c2ccccc2)N1c1ccccc1 (stereo not drawn) [sulfinpyrazone],< 0
17,C[C@@H]1CC(=O)NN=C1c1ccc(NN=C(C#N)C#N)cc1 [levosimendan],2.52
18,C[C@@H](c1ncncc1F)[C@](O)(Cn1cncn1)c1ccc(F)cc1F [voriconazole],3.04
19,O=C(O)Cc1ccccc1Nc1c(Cl)cccc1Cl [Diclofenac sodium],6.2
20,C[C@]12C=CC(=O)C=C1CC[C@@H]1[C@@H]2[C@@H](O)C[C@@]2(C)[C@H]1CC[C@]2(O)C(=O)CO [prednisolone],< 0
21,O=c1[nH]cc(F)c(=O)[nH]1 [fluorouracil],39.3
22,CS(=O)(=O)c1ccc([C@@H](O)[C@@H](CO)NC(=O)C(Cl)Cl)cc1 [thiamphenicol],12.1
23,CC(C)Cc1ccc([C@H](C)C(=O)O)cc1 [dexibuprofen],2.68

# A few values from the list.
# For motility inhibition on day 3 [%], Nc1ccc(S(=O)(=O)Nc2ncccn2)cc1 [sulfadiazine] shows < 0
# For motility inhibition on day 3 [%], O=C1C(CC[S+]([O-])c2ccccc2)C(=O)N(c2ccccc2)N1c1ccccc1 (stereo not drawn) [sulfinpyrazone] shows < 0

# (listing goes on)

row,Compound,motility inhibition on day 3 [%]
1,N=c1ccn2c(n1)O[C@H]1[C@H](O)[C@@H](CO)O[C@H]12 [ancitabine hydrochloride],5.35
2,CC(=O)Oc1c(C)cccc1C(=O)O [cresopyrine],13.6
3,COC(=O)[C@H]1[C@H]2C[C@@H]3c4[nH]c5cc(OC)ccc5c4CCN3C[C@H]2C[C@@H](OC(=O)c2cc(OC)c(OC)c(OC)c2)[C@@H]1OC [reserpine],< 0
4,CNC(=C[N+](=O)[O-])NCCSCc1ccc(CN(C)C)o1 [Ranitidine hydrochloride],1.8
5,CCCc1nc(C)c2c(O)nc(-c3cc(S(=O)(=O)N4CCN(CC)CC4)ccc3OCC)nn12 [vardenafil hydrochloride],3.07
6,N[C@H](Cc1ccccc1)C(=O)O [d-phenylalanine],< 0
7,CNC[C@H](O)c1cccc(O)c1 [Phenylephrine hydrochloride],9.01
8,CN1C(=O)CC(C)(c2ccccc2)C1=O (stereo not drawn) [methsuximide],9.63
9,CCN(CC)CCNC(=O)c1ccc(NC(C)=O)cc1 [N-Acetylprocainamide hydrochloride],< 0
10,CCOC(=O)[C@H](CCc1ccccc1)N[C@@H](C)C(=O)N1[C@H](C(=O)O)C[C@H]2CCCC[C@@H]21 [trandolapril],2.16
11,CC(C)(CO)[C@@H](O)C(=O)NCCCO [dexpanthenol],14.2
12,NS(=O)(=O)c1ccc(C(=O)O)cc1 [carzenide],38.4
13,CO[C@H]1C[C@@H]2CC[C@@H](C)[C@@](O)(O2)C(=O)C(=O)N2CCCC[C@H]2C(=O)O[C@H]([C@H](C)C[C@@H]2CC[C@@H](O)[C@H](OC)C2)CC(=O)[C@H](C)/C=C(\C)[C@@H](O)[C@@H](OC)C(=O)[C@H](C)C[C@H](C)/C=C/C=C/C=C/1C [sirolimus],13.8
14,CCOc1ccccc1C(N)=O [ethenzamide],< 0
15,CC(=O)N1CCN(c2ccc(OCC3COC(Cn4ccnc4)(c4ccc(Cl)cc4Cl)O3)cc2)CC1 (stereo not drawn) [ketoconazole],< 0
16,CN(CCOc1ccc(NS(C)(=O)=O)cc1)CCc1ccc(NS(C)(=O)=O)cc1,< 0
17,N=C(N)NCCC[C@@H](NC(=O)[C@@H]1CCCN1C(=O)[C@@H]1CSSCCC(=O)N[C@@H](Cc2ccc(O)cc2)C(=O)N[C@@H](Cc2ccccc2)C(=O)N[C@@H](CCC(N)=O)C(=O)N[C@@H](CC(N)=O)C(=O)N1)C(=O)NCC(N)=O [Desmopressin],< 0
18,C#C[C@]1(O)CC[C@H]2[C@@H]3CCc4cc(OC)ccc4[C@H]3CC[C@@]21C [mestranol],23.6
19,CC(C)NCC(O)c1ccc(NS(C)(=O)=O)cc1 (stereo not drawn) [sotalol hydrochloride],< 0
20,CCCCCCCCCCCCCCCC[N+](C)(C)CCN(Cc1ccc(OC)cc1)c1ncccn1 [thonzonium bromide],99.3
21,O=C(O)P(=O)(O)O [foscarnet sodium],5.21
22,CCN(CC)CCCC(C)Nc1c2ccc(Cl)cc2nc2ccc(OC)cc12 (stereo not drawn) [Quinacrine dihydrochloride],31.2
23,Cc1nc(C)c(Cl)c(O)c1Cl [clopidol],17.9

row,Compound,motility inhibition on day 3 [%]
1,C[C@@H]1CN(c2c(F)c(N)c3c(=O)c(C(=O)O)cn(C4CC4)c3c2F)C[C@H](C)N1 [Sparfloxacin],< 0
2,C[C@@H]1CN(c2c(F)c(N)c3c(=O)c(C(=O)O)cn(C4CC4)c3c2F)C[C@H](C)N1 [sparfloxacin],6.75
3,Cc1ccc(S(=O)(=O)NCl)cc1 [chloramine-t],< 0
4,CCn1cc(C(=O)O)c(=O)c2cc(F)c(N3CCN(C)CC3)cc21 [pefloxacine mesylate],5.87
5,CNC(=C[N+](=O)[O-])NCCSCc1csc(CN(C)C)n1 [nizatidine],25.1
6,OCc1ccccc1 [benzyl alcohol],< 0
7,CCC1=C[C@@H]2CN(C1)Cc1c([nH]c3ccccc13)[C@@](C(=O)OC)(c1cc3c(cc1OC)N(C)[C@H]1[C@@](O)(C(=O)OC)[C@H](OC(C)=O)[C@]4(CC)C=CCN5CC[C@]31[C@@H]54)C2 [vinorelbine],< 0
8,CCn1cc(C(=O)O)c(=O)c2cc(F)c(N3CCNC(C)C3)c(F)c21 (stereo not drawn) [lomefloxacin hydrochloride],9.15
9,CS(=O)(=O)Nc1ccc([N+](=O)[O-])cc1Oc1ccccc1 [nimesulide],56
10,CCOC(=O)CCC(=O)O[C@H]1[C@H](O[C@@H]2[C@@H](C)[C@H](O[C@H]3C[C@@](C)(OC)[C@@H](O)[C@H](C)O3)[C@@H](C)C(=O)O[C@H](CC)[C@@](C)(O)[C@H](O)[C@@H](C)C(=O)[C@H](C)C[C@@]2(C)O)O[C@H](C)C[C@@H]1N(C)C [erythromycin ethylsuccinate],< 0
11,C[C@]12C=CC(=O)C=C1CC[C@@H]1[C@@H]2C(=O)C[C@@]2(C)[C@H]1CC[C@]2(O)C(=O)CO [prednisone],< 0
12,Cc1ccc(/C(=C\CN2CCCC2)c2ccccn2)cc1 [Triprolidine hydrochloride],20.6
13,CC(C)(O/N=C(\C(=O)N[C@@H]1C(=O)N2C(C(=O)[O-])=C(C[n+]3ccccc3)CS[C@H]12)c1csc(N)n1)C(=O)O [ceftazidime],15.3
14,CC(C)(O/N=C(\C(=O)N[C@@H]1C(=O)N2C(C(=O)[O-])=C(C[n+]3ccccc3)CS[C@H]12)c1csc(N)n1)C(=O)O [Ceftazidime],9.79
15,CCc1c2c(nc3ccc(OC(=O)N4CCC(N5CCCCC5)CC4)cc13)-c1cc3c(c(=O)n1C2)COC(=O)[C@]3(O)CC [irinotecan hydrochloride],4.81
16,CNCCC=C1c2ccccc2CCc2ccccc21 [Nortriptyline hydrochloride],< 0
17,C[C@H]1[C@H](NC(=O)/C(=N\OC(C)(C)C(=O)O)c2csc(N)n2)C(=O)N1S(=O)(=O)O [aztreonam],40.3
18,CC(=O)Nc1ccc(S(=O)(=O)Nc2ccc([N+](=O)[O-])cc2)cc1 [sulfanitran],< 0
19,Cc1ccc(C(=O)Nc2ccc(S(=O)(=O)O)c3cc(S(=O)(=O)O)cc(S(=O)(=O)O)c23)cc1NC(=O)c1cccc(NC(=O)Nc2cccc(C(=O)Nc3cc(C(=O)Nc4ccc(S(=O)(=O)O)c5cc(S(=O)(=O)O)cc(S(=O)(=O)O)c45)ccc3C)c2)c1 [Suramin hexasodium],45.8
20,CC(=O)Nc1c(I)c(NC(C)=O)c(I)c(C(=O)O)c1I [diatrizoic acid],12
21,CCc1cc(C(N)=S)ccn1 [ethionamide],< 0
22,CN1CCN(C(c2ccccc2)c2ccc(Cl)cc2)CC1 (stereo not drawn) [chlorcyclizine hydrochloride],< 0
